# Laboratory results published in PubChem BioAssay (NCATS).
# The inconclusive results got no clear call from the source; some entries with a clear call stand among them for comparison. Potencies beside an inconclusive call are fits to weak or partial responses and may not hold up. Calls of active or inactive are those of the source. The call rests on the fitted dose curve; in most records, active means well fitted inhibition curve with a large enough effect; inconclusive means small, poorly fitted or top-dose-only effect, or effect the other way; inactive means no such curve, though single readings can be large or run the other way.
# Test: qHTS Assay for Inhibitors of Fructose-1,6-bisphosphate Aldolase from Giardia Lamblia: Giardia lamblia growth inhibition (AID 2785); further: nearly all actives have a fitted effect of over 70% in size
# Conditions: Giardia lamblia trophozoite growth inhibition; activity change, negative = inhibition: at 57.5 µM (top of the series)
# Procedure, shortened: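 G. lamblia WB trophozoites (100 cells/well) in modified TYI-S-33 medium, pH 7.0, were exposed to pin-transferred compounds or DMSO for 48 h at 37C in sealed bags. Viability was read as ATPlite luminescence after 20 min at room temperature.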
# On the % scale 0 is the no-effect control and ±100 the full control effect; potency means the concentration at half of the fitted maximal effect.
SMILES,"activity change, negative = inhibition",Potency
N#Cc1c(NC(=O)CCC(=O)O)sc2c1CCCCC2,inactive: -5.67%,–
CON/C=N/C(=S)Nc1ncc(C(F)(F)F)cc1Cl,–,"inconclusive: 10 µM [inhibitor, partial curve]"
O=CN1CCN(C(=S)NC(=O)c2ccc(Cl)cc2)CC1,inactive: -4.97% [at 38.3 µM],–
COc1ccc(CNCc2cc3c(cc2[N+](=O)[O-])OCO3)cc1,–,"inconclusive: 56.2 µM [inhibitor, partial curve, poor fit]"
O/N=C1/CCc2nonc2/C1=N/O,–,active: 8.91 µM
